{"source": "PubChem BioAssay AID1259254, NCATS, 2017", "screen": "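Finding genes that stop cells copying their DNA twice in one cycle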 (primary screen)", "system": "human HCT116 colorectal cancer cells", "reagents": "single siRNA against human genes", "timing": "3 days", "read-out": "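Imaged Hoechst DNA stain sorts each cell into a cycle phase by DNA amount; per plate, G2 fraction set to 0% for non-targeting and 100% for GMNN siRNA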", "direction": "G2 robust z-score and G2 cells, % of GMNN control: higher = more G2 cells, more excess DNA replication", "call rule": "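An siRNA counts as active if its G2 robust z-score lies at least 5 MADs above the screen median; here such calls match roughly 38% of GMNN control or more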", "note": "This is one part, drawn at random, of about 59,000 reagents tested. About 1,550 of them (2.6%) were called active. 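G2 share is only a proxy for re-replication; each gene was hit by three separate siRNAs, and active genes were retested.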 The numbers tell different reagents against one gene apart. Further read-outs or replicates are left out here. No sequences are given here. Not stated in the record: the amount of reagent."}
{"target":"PAFAH1B2P2","reagent":1,"G2 robust z-score":-0.714,"G2 cells, % of GMNN control":-2.06,"activity call":"inactive"}
{"target":"PAFAH1B2P2","reagent":2,"G2 robust z-score":0.0539,"G2 cells, % of GMNN control":3.35,"activity call":"inactive"}
{"target":"PAFAH1B2P2","reagent":3,"G2 robust z-score":0.485,"G2 cells, % of GMNN control":6.38,"activity call":"inactive"}
{"target":"MAS1","reagent":1,"G2 robust z-score":-1.01,"G2 cells, % of GMNN control":-4.12,"activity call":"inactive"}
{"target":"MAS1","reagent":2,"G2 robust z-score":0.746,"G2 cells, % of GMNN control":8.22,"activity call":"inactive"}
{"target":"MAS1","reagent":3,"G2 robust z-score":0.821,"G2 cells, % of GMNN control":8.74,"activity call":"inactive"}
{"target":"TPD52L2","reagent":1,"G2 robust z-score":1.52,"G2 cells, % of GMNN control":13.7,"activity call":"inactive"}
{"target":"TPD52L2","reagent":2,"G2 robust z-score":-0.0238,"G2 cells, % of GMNN control":2.8,"activity call":"inactive"}
{"target":"TPD52L2","reagent":3,"G2 robust z-score":-0.727,"G2 cells, % of GMNN control":-2.15,"activity call":"inactive"}
{"target":"LINC01704","reagent":1,"G2 robust z-score":0.479,"G2 cells, % of GMNN control":6.34,"activity call":"inactive"}
{"target":"LINC01704","reagent":2,"G2 robust z-score":0.643,"G2 cells, % of GMNN control":7.49,"activity call":"inactive"}
{"target":"LINC01704","reagent":3,"G2 robust z-score":-0.156,"G2 cells, % of GMNN control":1.87,"activity call":"inactive"}
{"target":"NDUFAF4","reagent":1,"G2 robust z-score":0.134,"G2 cells, % of GMNN control":3.91,"activity call":"inactive"}
{"target":"NDUFAF4","reagent":2,"G2 robust z-score":0.0675,"G2 cells, % of GMNN control":3.44,"activity call":"inactive"}
{"target":"NDUFAF4","reagent":3,"G2 robust z-score":0.00912,"G2 cells, % of GMNN control":3.03,"activity call":"inactive"}
{"target":"BOP1","reagent":1,"G2 robust z-score":1.43,"G2 cells, % of GMNN control":13,"activity call":"inactive"}
{"target":"BOP1","reagent":2,"G2 robust z-score":0.996,"G2 cells, % of GMNN control":9.98,"activity call":"inactive"}
{"target":"BOP1","reagent":3,"G2 robust z-score":0.123,"G2 cells, % of GMNN control":3.83,"activity call":"inactive"}
{"target":"WWOX","reagent":1,"G2 robust z-score":-0.429,"G2 cells, % of GMNN control":-0.0521,"activity call":"inactive"}
{"target":"WWOX","reagent":2,"G2 robust z-score":1.95,"G2 cells, % of GMNN control":16.7,"activity call":"inactive"}
{"target":"WWOX","reagent":3,"G2 robust z-score":-0.717,"G2 cells, % of GMNN control":-2.08,"activity call":"inactive"}
{"target":"VCF1","reagent":1,"G2 robust z-score":4.12,"G2 cells, % of GMNN control":32,"activity call":"inactive"}
{"target":"VCF1","reagent":2,"G2 robust z-score":0.764,"G2 cells, % of GMNN control":8.34,"activity call":"inactive"}
{"target":"VCF1","reagent":3,"G2 robust z-score":0.484,"G2 cells, % of GMNN control":6.37,"activity call":"inactive"}

An excerpt of the results above:
{"target":"NDUFAF4","reagent":2,"G2 robust z-score":0.0675,"G2 cells, % of GMNN control":3.44,"activity call":"inactive"}
{"target":"NDUFAF4","reagent":3,"G2 robust z-score":0.00912,"G2 cells, % of GMNN control":3.03,"activity call":"inactive"}
{"target":"BOP1","reagent":1,"G2 robust z-score":1.43,"G2 cells, % of GMNN control":13,"activity call":"inactive"}
